According to patent CN114075288A:
These are yes or no findings as the source states them, for the method shown. Some binding calls cover weakened binding; strength is not graded here.

Target: T1, 细胞上免疫检查点 (人成熟DC与CD4+ T细胞混合培养物上的PD-L2) (human) (UniProt Q9BQ51)
T1 sequence (looked up): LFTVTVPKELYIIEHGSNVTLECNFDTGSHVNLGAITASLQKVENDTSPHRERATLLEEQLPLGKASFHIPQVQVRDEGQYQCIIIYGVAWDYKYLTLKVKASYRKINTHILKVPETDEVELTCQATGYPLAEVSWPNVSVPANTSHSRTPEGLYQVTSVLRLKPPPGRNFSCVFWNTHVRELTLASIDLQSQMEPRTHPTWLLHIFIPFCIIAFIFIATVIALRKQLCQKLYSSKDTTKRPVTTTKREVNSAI
Test: flow cytometry on mixed human mature DC and CD4+ T cells

binding: binds
B1: 人源化25G4-1.1抗体 (antibody, human IgG1, kappa, V domains shown)
VH: QVQLVQSGAEVKKPGASVKVSCKASGYTFTTNWMNWVRQAPGQGLEWMGRIDPSDSETHYAQKFQGRVTMTVDKSTNTVYMELSSLRSEDTAVYYCVREGIYGPWFAYWGQGTLVTVSS
VL: DIQMTQSPSSLSASVGDRVTITCRASESVDNYGISLMHWYQQKPGKAPKLLIYRASDLESGVPSRFSGSGSRTDFTLTISSLQPEDFATYYCQQSDKDPPTFGQGTKVEIKR
